Results as given in patent US8133847B2, “Pyrido[2,3-B]pyrazine derivatives useful as herbicidal compounds” (Syngenta Limited, priority 2006, dated 2012).
Some of these results come from one statement about several compounds together.

Test system: test plants (a variety of test species)
Test: Example B3 herbicidal action, post-emergence, small pots in glasshouse (all test plants)
Format: in vivo
Conditions: 1000 g/ha, evaluated after 13 days, 100=total damage to plant, 0=no damage to plant

SMILES: O=c1[nH]c2nccnc2c(O)c1-c1ccccc1OC(F)F [Compound A45]
- damage to the test plants: no damage
